Measured values as given in PubChem BioAssay AID504834 (National Center for Advancing Translational Sciences (NCATS), 2011).
Out of some 320,000 compounds screened, about 22,000 (6.9%) were called active. This list was built around the results that the source calls inconclusive (neither active nor inactive); the mix of calls is not that of the screen. Calls come from the whole dose curve; as a rule, active = well fitted inhibition curve with a large enough effect; inconclusive = small, poorly fitted or top-dose-only effect, or another doubt; inactive = no such curve, though single readings can be large or run the other way. Potencies beside an inconclusive call are fits to weak or partial responses and may not hold up.

Assay: Primary qHTS for delayed death inhibitors of the malarial parasite plastid, 96 hour incubation
Conditions: P. falciparum luciferase reporter growth; series mostly up to 28.7 µM
Procedure, shortened: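 P. falciparum expressing integrated firefly luciferase, in erythrocytes at 2% hematocrit, 0.05% parasitemia, incubated with compounds 96 h at 37 C, 5% CO2. Growth inhibition read as loss of luminescence; two-generation exposure targets delayed-death apicoplast inhibitors.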
Potency is the fitted concentration of half-maximal effect.

Compound | Potency
Cc1cccc(C(=O)N2CCc3cc(-c4csc(NC(=O)CN5CCCC5)n4)ccc32)c1 | inconclusive: 2.94 µM [inhibitor, partial curve]
Cc1ccc(NC(=O)C2=CCN(S(=O)(=O)c3ccc(F)cc3)CC2)c(C)c1 | active: 0.329 µM
CN(Cc1ccccc1)C(=O)c1[nH]cnc1C(=O)NCc1ccc(CNC(=O)OC(C)(C)C)cc1 | inconclusive: 3.29 µM [inhibitor, single point]
COc1ccc(NC(=O)c2ccc(COc3ccc(C)cc3)o2)cc1 | active: 5.22 µM
O=C(Cc1ccc(Cl)cc1Cl)OCC(=O)N1CCCCC1 | inactive
CCOc1cc(NC(=S)NCC2CCCO2)c(OCC)cc1NC(=O)C1CC1 (stereo not drawn) | inactive
CC(C)CCNC(=O)c1ccc(CSCc2cccc(F)c2)o1 | inactive
CCOc1cc(/C=N/NC(=O)C(=O)Nc2cc(Cl)ccc2C)ccc1O | inconclusive: 1.47 µM [inhibitor, single point]
COc1cc(/C=N/NC(=O)Cn2cnc3ccccc3c2=O)ccc1O | inactive
CC(Oc1ccc(Cl)cc1)C(=O)Nc1ccc(S(=O)(=O)N2CCOCC2)cc1 (stereo not drawn) | inactive
COCCOC(=O)c1c(C)n(C)c2ccc(OC(=O)N3CCOCC3)cc12 | inconclusive: 9.28 µM [inhibitor, partial curve, poor fit]
C=CCn1c(SCC(=O)Nc2nc(C)cs2)nnc1C(NC(=O)c1ccccc1)C(C)C (stereo not drawn) | inconclusive: 18.5 µM [inhibitor, single point]
COc1ccc(-c2cc(C(=O)N3CCCCCC3)c3ccccc3n2)c(OC)c1 | inconclusive: 2.33 µM [inhibitor, partial curve, poor fit]
CCn1c(O)c(C#N)c(C)cc1=O | inactive
Cc1cccc(C(=O)NC(NCCc2ccccc2)C(Cl)(Cl)Cl)c1 (stereo not drawn) | active: 3.7 µM
COc1cc(NS(=O)(=O)c2ccc(NC(=O)C3CCCO3)cc2)nc(OC)n1 (stereo not drawn) | inactive
Cc1ccc(NC(=S)N/N=C/c2cccn2Cc2ccccc2F)cc1 | inconclusive: 3.7 µM [inhibitor, full curve, poor fit]
CCC(=O)NC(=S)Nc1ccc(NC(=O)c2cc3ccccc3o2)c(OC)c1 | inconclusive: 10.4 µM [inhibitor, single point]
CC(/C=C/c1ccccc1)=N\Nc1nc(-c2ccccc2)cs1 | inconclusive: 16.5 µM [inhibitor, single point]
CN(C)S(=O)(=O)N1CCc2ccc(NC(=O)c3ccccc3Cl)cc2C1 | active: 5.86 µM
COc1ccc(NC(=O)c2cc(-c3cccnc3)nc3ccc(C)cc23)cc1OC | inconclusive: 0.37 µM [inhibitor, full curve]
COc1ccc(Cn2c(C)nnc2-c2cnn(C)c2N)cc1 | inactive
CN1C(=O)C(O)(CC(=O)c2cccc(-n3cccc3)c2)c2ccccc21 (stereo not drawn) | inactive
c1cnc2cc(-c3ccsc3)ncc2c1 | inconclusive: 4.15 µM [inhibitor, single point]

Compound | Potency
Cc1onc(-c2ccccc2)c1C(=O)O/N=C(\N)c1ccc([N+](=O)[O-])o1 | active: 11.7 µM
COc1ccc(Cl)cc1NC(=O)CCN1CCN(C)CC1 | inconclusive: 1.31 µM [inhibitor, partial curve, poor fit]
O=S(=O)(NCC1CCN(c2ccc(S(=O)(=O)N3CCOCC3)cc2)CC1)c1ccccc1 | inconclusive: 7.38 µM [inhibitor, single point]
Cc1ccccc1OCC(=O)Nc1ccccc1N1CCCCC1 | active: 10.4 µM
CCOP(=O)(OCC)c1nc(-c2ccc(Cl)cc2Cl)oc1N1CCCCC1 | inconclusive: 2.62 µM [inhibitor, partial curve, poor fit]
Cc1ccccc1C(=O)N/N=C1/SCC(=O)N1Cc1ccccc1 | inactive
CSc1ncccc1C(=O)N1CCCC(N2CCN(c3ccccc3F)CC2)C1 (stereo not drawn) | inconclusive: 10.4 µM [inhibitor, single point]
COc1ccccc1Cn1c(=S)[nH]c2ccc(F)cc2c1=O | inconclusive: 11.7 µM [inhibitor, single point]
CCOc1nc(Nc2ccc(F)cc2)nc(N2CCN(c3ccc(OC)cc3)CC2)n1 | inconclusive: 18.5 µM [inhibitor, single point]
COc1ccc(-c2nc3ccccc3c(=O)n2CCOc2ccccc2C)cc1 | inactive
CCOc1ccc(C(C)=O)cc1COC(=O)C(C)N=C1NS(=O)(=O)c2ccccc21 (stereo not drawn) | inactive
CCOC(=O)C1CCCCN1Cc1cc(Cl)ccc1O (stereo not drawn) | inconclusive: 18.5 µM [inhibitor, single point]
Cc1cc(=O)oc2cc(OCC(=O)N3CCCC3)c(Cl)cc12 | inactive
COc1cc(CCC(=O)OCC(=O)c2ccc[nH]2)cc(OC)c1OC | inactive
Cn1c(SCC(=O)NC(=O)NCc2ccco2)nnc1C(F)(F)F | inconclusive: 6.57 µM [inhibitor, partial curve, poor fit]
Cc1cc(C(=O)COC(=O)c2ccc3c(c2)OCO3)c(C)n1CC1CCCO1 (stereo not drawn) | inactive
Cc1cc(-c2ccc(C)c(S(=O)(=O)N3CCN(c4ccc(F)cc4)CC3)c2)on1 | inconclusive: 18.5 µM [inhibitor, partial curve, poor fit]
O=C(N/N=C/c1ccc([N+](=O)[O-])cc1)c1cc(-c2ccc3c(c2)OCO3)n[nH]1 | inactive
CC(OC(=O)Cn1[nH]c(=O)c2ccccc2c1=O)C(=O)Nc1cccc(Cl)c1 (stereo not drawn) | inactive
Cc1ccc(C)n1-n1c(C)nc2sc(-c3ccccc3)cc2c1=O | inactive
O=C(CCn1c(=O)c2cccn2c2ccc(F)cc21)NCc1cccc(F)c1 | inconclusive: 18.5 µM [inhibitor, single point]
COc1ccc(N=C2SC(CC(=O)Nc3cccc(Cl)c3)C(=O)N2Cc2ccco2)cc1 (stereo not drawn) | inconclusive: 18.5 µM [inhibitor, single point]
Cc1cc(N2C(=O)C(O)=C(C(=O)c3ccco3)C2c2ccc(Cl)cc2)no1 (stereo not drawn) | inconclusive: 13.1 µM [inhibitor, single point]
COC(=O)c1ccc(COC(=O)CNC(=O)c2ccc(-c3ccccc3)cc2)cc1 | inactive

An excerpt of these results, field by field:
O=C(Cc1ccc(Cl)cc1Cl)OCC(=O)N1CCCCC1
  Potency: inactive
Cc1ccccc1C(=O)N/N=C1/SCC(=O)N1Cc1ccccc1
  Potency: inactive
